Values of other authors as cited in publication PMC12640937, “Integrating drug effects on individual cardiac ionic currents and cardiac action potentials to understand nonclinical translation to clinical ECG changes” (Frontiers in Pharmacology, 2025).

Experiments:
INaL (NaV1.5 channels) = details: read-out: INaL IC50; prior study; veratridine; 36 °C; ref Crumb et al., 2016; cited from earlier work
[1] = calculated with MW and protein binding; ref Johannesen et al., 2016; cited from earlier work

In the case of `CCN(CC)CC(=O)Nc1c(C)cccc1C` [lidocaine], the IC50 (INaL (NaV1.5 channels)) is given as 10.8 µM and the “free clinical Cmax” value [1] is given as 2900 nM.
